PMC10298753
No constants are given. Whether binding was seen depends on the method and setting. In cells and extracts the contact can be indirect. Binding can be weak; no strength is given.

Experiments:
[1] = target: purified bovine tubulin (microtubules) (bovine); test: co-sedimentation; in vitro translated IFT74 constructs incubated with or without microtubules and spun through a sucrose gradient at lower g forces; pellet and supernatant probed by western blot; only the target purified
[2] = target: purified bovine tubulin (microtubules) (bovine); test: co-sedimentation; in vitro translated IFT74 constructs incubated with purified bovine tubulin (microtubules), without IFT81; centrifuged at 100,000 g; pellet and supernatant probed for tubulin and IFT74; only the target purified

binding [1] | binding [2] | Binder
binds |  | in vitro translated IFT74Δexon2 (domain or fragment, UniProt Q96LB3-1 41-600) MPPGTARPGSRGCPIGTGGVLSSQIKVAHRPVTQQGLTGMKTGTKGPQRQILDKSYYLGLLRSKISELTTEVNKLQKGIEMYNQENSVYLSYEKRAETLAVEIKELQGQLADYNMLVDKLNTNTEMEEVMNDYNMLKAQNDRETQSLDVIFTERQAKEKQIRSVEEEIEQEKQATDDIIKNMSFENQVKYLEMKTTNEKLLQELDTLQQQLDSQNMKKESLEAEIAHSQVKQEAVLLHEKLYELESHRDQMIAEDKSIGSPMEEREKLLKQIKDDNQEIASMERQLTDTKEKINQFIEEIRQLDMDLEEHQGEMNQKYKELKKREEHMDTFIETFEETKNQELKRKAQIEANIVALLEHCSRNINRIEQISSITNQELKMMQDDLNFKSTEVQKSQSTAQNLTSDIQRLQLDLQKMELLESKMTEEQHSLKSKIKQMTTDLEIYNDLPALKSSGEEKIKKLHQERMILSTHRNAFKKIMEKQNIEYEALKTQLQENETHSQLTNLERKWQHLEQNNFAMKEFIATKSQESDYQPIKKNVTKQIAEYNKTIVDALHSTSGN
binds | binds | in vitro translated full length IFT74 (protein, UniProt Q96LB3-1 1-600) MASNHKSSAARPVSRGGVGLTGRPPSGIRPLSGNIRVATAMPPGTARPGSRGCPIGTGGVLSSQIKVAHRPVTQQGLTGMKTGTKGPQRQILDKSYYLGLLRSKISELTTEVNKLQKGIEMYNQENSVYLSYEKRAETLAVEIKELQGQLADYNMLVDKLNTNTEMEEVMNDYNMLKAQNDRETQSLDVIFTERQAKEKQIRSVEEEIEQEKQATDDIIKNMSFENQVKYLEMKTTNEKLLQELDTLQQQLDSQNMKKESLEAEIAHSQVKQEAVLLHEKLYELESHRDQMIAEDKSIGSPMEEREKLLKQIKDDNQEIASMERQLTDTKEKINQFIEEIRQLDMDLEEHQGEMNQKYKELKKREEHMDTFIETFEETKNQELKRKAQIEANIVALLEHCSRNINRIEQISSITNQELKMMQDDLNFKSTEVQKSQSTAQNLTSDIQRLQLDLQKMELLESKMTEEQHSLKSKIKQMTTDLEIYNDLPALKSSGEEKIKKLHQERMILSTHRNAFKKIMEKQNIEYEALKTQLQENETHSQLTNLERKWQHLEQNNFAMKEFIATKSQESDYQPIKKNVTKQIAEYNKTIVDALHSTSGN
